Measurements published in the supplement of paper PMC10849652.
This is one part of the list.

The chains behind the UniProt entries cited, without tags or fusion partners. Where a name states a change or a piece, a line headed by the entry shows the natural chain unless it says otherwise.
UniProt O60732: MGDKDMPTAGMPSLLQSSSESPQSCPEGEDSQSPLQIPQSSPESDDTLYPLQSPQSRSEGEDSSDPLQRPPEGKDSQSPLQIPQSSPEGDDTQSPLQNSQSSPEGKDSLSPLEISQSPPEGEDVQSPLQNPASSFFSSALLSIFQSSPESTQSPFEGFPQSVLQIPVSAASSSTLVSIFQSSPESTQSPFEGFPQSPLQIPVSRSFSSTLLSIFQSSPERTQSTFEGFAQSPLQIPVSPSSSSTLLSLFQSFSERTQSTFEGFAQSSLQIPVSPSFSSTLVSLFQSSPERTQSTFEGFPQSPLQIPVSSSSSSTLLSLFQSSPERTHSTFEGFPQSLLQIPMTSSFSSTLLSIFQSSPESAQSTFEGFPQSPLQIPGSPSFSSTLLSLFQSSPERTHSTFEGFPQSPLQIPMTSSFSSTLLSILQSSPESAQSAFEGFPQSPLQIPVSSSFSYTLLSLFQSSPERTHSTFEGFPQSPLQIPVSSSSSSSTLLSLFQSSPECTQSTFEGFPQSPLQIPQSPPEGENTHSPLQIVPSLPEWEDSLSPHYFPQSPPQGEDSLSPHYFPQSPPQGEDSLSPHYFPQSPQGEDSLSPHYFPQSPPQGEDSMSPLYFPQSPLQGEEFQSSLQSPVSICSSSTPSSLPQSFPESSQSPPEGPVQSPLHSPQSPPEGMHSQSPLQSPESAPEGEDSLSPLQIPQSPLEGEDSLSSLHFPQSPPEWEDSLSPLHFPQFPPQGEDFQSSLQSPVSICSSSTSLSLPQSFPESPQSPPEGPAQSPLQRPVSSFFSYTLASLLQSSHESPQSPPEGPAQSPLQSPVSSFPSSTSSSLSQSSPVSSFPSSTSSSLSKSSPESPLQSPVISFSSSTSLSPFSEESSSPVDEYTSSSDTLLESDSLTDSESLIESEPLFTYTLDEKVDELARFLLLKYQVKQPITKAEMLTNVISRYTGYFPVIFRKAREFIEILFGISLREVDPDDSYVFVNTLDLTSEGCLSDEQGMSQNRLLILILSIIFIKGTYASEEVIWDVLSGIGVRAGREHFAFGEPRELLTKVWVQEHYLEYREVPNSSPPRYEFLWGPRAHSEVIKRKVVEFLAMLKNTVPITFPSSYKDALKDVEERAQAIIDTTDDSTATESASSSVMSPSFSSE
UniProt P49137, whole entry, looked up: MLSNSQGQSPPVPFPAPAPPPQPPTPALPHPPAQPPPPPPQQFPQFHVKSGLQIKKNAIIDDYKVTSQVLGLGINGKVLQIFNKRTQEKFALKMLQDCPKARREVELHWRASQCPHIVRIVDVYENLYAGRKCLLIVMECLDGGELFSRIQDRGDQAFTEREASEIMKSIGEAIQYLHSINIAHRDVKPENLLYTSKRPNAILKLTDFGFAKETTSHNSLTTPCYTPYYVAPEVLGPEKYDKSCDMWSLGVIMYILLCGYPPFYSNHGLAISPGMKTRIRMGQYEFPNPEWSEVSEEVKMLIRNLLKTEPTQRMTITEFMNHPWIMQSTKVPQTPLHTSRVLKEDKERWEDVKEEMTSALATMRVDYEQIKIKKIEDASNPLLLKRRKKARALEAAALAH
UniProt Q5VWZ2: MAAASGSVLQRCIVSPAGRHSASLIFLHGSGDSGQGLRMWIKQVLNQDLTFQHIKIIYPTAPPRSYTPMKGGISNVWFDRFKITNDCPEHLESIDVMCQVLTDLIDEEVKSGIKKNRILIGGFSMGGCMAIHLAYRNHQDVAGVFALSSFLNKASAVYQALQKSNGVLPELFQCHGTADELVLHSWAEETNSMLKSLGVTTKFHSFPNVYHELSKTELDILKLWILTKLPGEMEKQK
UniProt Q9Y6R4: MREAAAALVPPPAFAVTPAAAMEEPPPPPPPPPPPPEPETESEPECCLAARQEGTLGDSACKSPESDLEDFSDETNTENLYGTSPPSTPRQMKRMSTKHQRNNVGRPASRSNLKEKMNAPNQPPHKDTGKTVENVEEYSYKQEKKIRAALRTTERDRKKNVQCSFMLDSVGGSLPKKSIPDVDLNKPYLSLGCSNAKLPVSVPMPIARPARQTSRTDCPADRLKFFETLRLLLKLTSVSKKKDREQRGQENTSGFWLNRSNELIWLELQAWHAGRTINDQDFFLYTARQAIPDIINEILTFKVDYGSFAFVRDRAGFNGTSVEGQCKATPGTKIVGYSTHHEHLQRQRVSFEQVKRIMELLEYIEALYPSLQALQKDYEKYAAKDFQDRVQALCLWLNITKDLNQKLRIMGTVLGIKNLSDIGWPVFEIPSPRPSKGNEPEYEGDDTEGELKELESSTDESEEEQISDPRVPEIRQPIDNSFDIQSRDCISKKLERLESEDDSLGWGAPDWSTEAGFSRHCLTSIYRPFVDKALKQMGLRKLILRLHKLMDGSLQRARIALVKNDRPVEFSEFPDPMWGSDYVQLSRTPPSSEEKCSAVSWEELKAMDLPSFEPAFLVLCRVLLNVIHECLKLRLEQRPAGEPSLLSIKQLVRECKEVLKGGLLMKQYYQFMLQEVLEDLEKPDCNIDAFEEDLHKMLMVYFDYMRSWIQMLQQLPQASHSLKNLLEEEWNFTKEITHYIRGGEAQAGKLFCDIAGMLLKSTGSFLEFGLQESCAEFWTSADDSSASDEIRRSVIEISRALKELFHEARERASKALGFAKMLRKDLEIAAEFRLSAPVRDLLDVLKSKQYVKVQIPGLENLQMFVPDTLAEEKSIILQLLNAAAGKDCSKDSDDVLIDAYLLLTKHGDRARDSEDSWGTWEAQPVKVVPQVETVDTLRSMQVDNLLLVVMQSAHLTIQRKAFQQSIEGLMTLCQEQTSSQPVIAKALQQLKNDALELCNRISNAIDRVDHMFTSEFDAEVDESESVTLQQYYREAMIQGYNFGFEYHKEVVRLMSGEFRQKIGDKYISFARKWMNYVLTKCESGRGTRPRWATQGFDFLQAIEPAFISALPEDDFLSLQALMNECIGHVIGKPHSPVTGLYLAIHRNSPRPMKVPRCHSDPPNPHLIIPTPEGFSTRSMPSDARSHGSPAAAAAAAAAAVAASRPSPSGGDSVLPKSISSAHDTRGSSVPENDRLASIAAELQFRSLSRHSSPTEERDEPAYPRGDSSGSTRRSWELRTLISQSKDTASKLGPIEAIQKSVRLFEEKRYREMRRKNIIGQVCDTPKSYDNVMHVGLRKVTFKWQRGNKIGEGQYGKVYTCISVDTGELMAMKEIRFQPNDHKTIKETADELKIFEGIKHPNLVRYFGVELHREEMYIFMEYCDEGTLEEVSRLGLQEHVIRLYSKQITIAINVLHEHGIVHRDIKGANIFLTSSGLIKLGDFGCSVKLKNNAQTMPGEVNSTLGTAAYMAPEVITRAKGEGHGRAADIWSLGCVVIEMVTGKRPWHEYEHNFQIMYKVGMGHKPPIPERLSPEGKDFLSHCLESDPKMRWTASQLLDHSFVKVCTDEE
UniProt Q9UPY8, whole entry, looked up: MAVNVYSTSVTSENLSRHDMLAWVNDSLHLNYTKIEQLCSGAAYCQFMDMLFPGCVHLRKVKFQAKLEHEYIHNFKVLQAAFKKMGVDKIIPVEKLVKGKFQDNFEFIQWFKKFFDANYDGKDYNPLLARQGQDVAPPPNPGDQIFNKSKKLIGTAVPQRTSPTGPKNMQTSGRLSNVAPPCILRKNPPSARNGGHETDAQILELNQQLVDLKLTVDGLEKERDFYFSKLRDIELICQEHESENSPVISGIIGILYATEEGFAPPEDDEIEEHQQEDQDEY
UniProt Q8WVR3: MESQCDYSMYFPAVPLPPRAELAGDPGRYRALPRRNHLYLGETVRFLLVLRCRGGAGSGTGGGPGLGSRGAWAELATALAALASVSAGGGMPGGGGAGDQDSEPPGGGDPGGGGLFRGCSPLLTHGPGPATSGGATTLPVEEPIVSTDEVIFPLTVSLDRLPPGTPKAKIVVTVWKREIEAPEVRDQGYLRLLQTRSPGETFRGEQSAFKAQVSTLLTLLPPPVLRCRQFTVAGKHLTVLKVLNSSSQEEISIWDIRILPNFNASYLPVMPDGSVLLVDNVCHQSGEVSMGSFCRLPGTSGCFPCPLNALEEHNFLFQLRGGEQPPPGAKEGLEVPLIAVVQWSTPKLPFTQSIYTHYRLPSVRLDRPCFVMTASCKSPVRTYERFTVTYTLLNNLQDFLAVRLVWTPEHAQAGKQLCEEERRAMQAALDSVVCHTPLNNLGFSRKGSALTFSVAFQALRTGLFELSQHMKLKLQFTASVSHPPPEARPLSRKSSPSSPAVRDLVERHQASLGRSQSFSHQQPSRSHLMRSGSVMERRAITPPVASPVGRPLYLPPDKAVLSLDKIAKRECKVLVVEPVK
UniProt Q13163: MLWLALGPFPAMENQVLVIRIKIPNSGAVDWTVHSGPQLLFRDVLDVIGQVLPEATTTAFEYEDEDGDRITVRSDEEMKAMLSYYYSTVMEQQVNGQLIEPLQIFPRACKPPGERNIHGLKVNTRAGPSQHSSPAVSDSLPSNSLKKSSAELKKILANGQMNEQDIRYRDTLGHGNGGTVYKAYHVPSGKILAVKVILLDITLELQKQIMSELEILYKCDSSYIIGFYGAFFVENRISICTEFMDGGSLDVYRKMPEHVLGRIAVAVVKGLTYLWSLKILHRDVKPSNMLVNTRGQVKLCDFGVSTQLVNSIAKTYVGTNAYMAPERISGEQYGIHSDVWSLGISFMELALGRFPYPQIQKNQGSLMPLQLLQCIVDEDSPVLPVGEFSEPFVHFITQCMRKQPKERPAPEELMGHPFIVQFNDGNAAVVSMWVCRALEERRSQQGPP
UniProt Q8N5G2: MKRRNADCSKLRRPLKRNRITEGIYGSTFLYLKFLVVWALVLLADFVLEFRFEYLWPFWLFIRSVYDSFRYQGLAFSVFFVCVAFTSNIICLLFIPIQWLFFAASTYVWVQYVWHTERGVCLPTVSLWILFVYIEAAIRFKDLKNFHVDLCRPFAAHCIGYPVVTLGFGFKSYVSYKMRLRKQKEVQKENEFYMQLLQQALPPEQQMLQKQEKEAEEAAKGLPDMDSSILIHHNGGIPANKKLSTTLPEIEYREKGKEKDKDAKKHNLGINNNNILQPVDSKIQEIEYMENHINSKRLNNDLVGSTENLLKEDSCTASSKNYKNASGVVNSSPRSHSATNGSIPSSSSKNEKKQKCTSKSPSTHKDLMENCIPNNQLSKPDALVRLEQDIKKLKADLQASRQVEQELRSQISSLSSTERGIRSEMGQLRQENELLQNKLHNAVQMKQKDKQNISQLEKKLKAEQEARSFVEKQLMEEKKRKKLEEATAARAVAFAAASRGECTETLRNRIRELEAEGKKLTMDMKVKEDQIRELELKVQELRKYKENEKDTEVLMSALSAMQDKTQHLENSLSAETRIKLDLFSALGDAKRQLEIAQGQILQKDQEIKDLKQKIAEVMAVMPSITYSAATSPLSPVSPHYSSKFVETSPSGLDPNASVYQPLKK
UniProt Q9UNF1: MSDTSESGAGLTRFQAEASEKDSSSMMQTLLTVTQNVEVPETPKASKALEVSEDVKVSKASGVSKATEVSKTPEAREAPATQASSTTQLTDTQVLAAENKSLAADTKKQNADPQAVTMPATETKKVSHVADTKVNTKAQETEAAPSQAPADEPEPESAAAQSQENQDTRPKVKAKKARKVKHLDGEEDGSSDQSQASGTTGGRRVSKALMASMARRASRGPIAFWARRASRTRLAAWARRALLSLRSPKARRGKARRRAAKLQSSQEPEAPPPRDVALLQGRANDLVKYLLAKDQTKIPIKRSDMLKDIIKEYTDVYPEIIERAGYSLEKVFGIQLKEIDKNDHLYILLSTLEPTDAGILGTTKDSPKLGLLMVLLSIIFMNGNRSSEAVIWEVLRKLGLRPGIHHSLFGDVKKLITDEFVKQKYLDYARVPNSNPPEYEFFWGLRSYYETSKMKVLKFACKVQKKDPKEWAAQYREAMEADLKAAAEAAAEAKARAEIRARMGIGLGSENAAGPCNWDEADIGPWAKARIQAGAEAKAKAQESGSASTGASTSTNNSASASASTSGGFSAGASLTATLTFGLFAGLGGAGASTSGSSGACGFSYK
UniProt Q9Y250: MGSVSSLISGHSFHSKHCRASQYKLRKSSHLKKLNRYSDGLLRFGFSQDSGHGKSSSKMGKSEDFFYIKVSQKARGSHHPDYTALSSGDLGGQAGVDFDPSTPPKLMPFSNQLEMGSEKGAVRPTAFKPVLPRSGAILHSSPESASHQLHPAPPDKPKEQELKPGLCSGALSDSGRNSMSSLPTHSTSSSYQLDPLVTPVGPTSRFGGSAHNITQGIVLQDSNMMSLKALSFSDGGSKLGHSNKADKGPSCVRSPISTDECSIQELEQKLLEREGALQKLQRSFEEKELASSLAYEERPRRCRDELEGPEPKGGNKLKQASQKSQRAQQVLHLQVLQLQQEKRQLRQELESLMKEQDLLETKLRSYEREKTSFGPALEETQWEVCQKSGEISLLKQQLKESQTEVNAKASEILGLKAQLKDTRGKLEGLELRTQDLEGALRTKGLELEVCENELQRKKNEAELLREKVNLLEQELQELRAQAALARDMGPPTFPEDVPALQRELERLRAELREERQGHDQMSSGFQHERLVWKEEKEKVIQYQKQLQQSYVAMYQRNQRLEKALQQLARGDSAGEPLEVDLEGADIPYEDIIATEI

What was measured:
Experiment in all cases: log2 fold change, soluble protein after heating vs DMSO (PISA); higher = thermal stabilisation; K562 lysate, 10 uM; active = over 0.2 and 3.5 SD of the protein, either way, in both replicates (recomputed)
vemurafenib = compound: CCCS(=O)(=O)Nc1ccc(F)c(C(=O)c2c[nH]c3ncc(-c4ccc(Cl)cc4)cc23)c1F [vemurafenib]
How it was run: (§1)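 Thermal stability, expressed as log-two fold change relative to solvent controls, is given from duplicates. Crude K562 extract in PBS pH 7.4 with 1 mM MgCl2, at 1 mg/mL protein, was treated with 10 μM compound for 30 min and heated in aliquots for 3 min across 48°C-58°C. After pooling, adjustment to 0.5% NP-40 at 4°C and centrifugation at 21,000xg for 90 min, supernatant protein was measured by TMTpro 16plex LC-MS/MS with channel sums equalised.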

[1] = compound: CCCS(=O)(=O)Nc1ccc(F)c(C(=O)c2c[nH]c3ncc(Cl)cc23)c1F
How it was run: as §1

barasertib = compound: CCN(CCCOc1ccc2c(Nc3cc(CC(=O)Nc4cccc(F)c4)[nH]n3)ncnc2c1)CCOP(=O)(O)O [barasertib]
How it was run: as §1

[2] = compound: CC[C@@H]1C(=O)N(C)c2cnc(Nc3ccc(C(=O)NC4CCN(C)CC4)cc3OC)nc2N1C1CCCC1
How it was run: as §1

volasertib = compound: CC[C@@H]1C(=O)N(C)c2cnc(Nc3ccc(C(=O)N[C@H]4CC[C@H](N5CCN(CC6CC6)CC5)CC4)cc3OC)nc2N1C(C)C [volasertib]
How it was run: as §1

[3] = compound: CCn1c(C(=O)N(C2CC2)C2CC2)cc2c3c(ncn3C)c(Nc3cc(C)n(C)n3)nc21
How it was run: as §1

[4] = compound: CCn1cc(-c2ccnc3[nH]c(-c4cccc(CN(C)C)c4)cc23)c(-c2ccc(NC(=O)N(C)C)cc2)n1
How it was run: as §1

[5] = compound: CN1CCC(CNc2ccc3ncc(-c4cccc(OC(F)(F)F)c4)n3n2)CC1
How it was run: as §1

saracatinib = compound: CN1CCN(CCOc2cc(OC3CCOCC3)c3c(Nc4c(Cl)ccc5c4OCO5)ncnc3c2)CC1 [saracatinib]
How it was run: as §1

sotrastaurin = compound: CN1CCN(c2nc(C3=C(c4c[nH]c5ccccc45)C(=O)NC3=O)c3ccccc3n2)CC1 [sotrastaurin]
How it was run: as §1

alvocidib = compound: CN1CC[C@H](c2c(O)cc(O)c3c(=O)cc(-c4ccccc4Cl)oc23)[C@H](O)C1 [alvocidib]
How it was run: as §1

Tubastatin A = compound: CN1CCc2c(c3ccccc3n2Cc2ccc(C(=O)NO)cc2)C1 [Tubastatin A]
How it was run: as §1

[6] = compound: CNC(=O)C1=CC=CC=C1NC2=NC(=NC=C2Cl)NC3=C(C=C(C=C3)N4CCOCC4)OC
How it was run: as §1

defactinib = compound: CNC(=O)c1ccc(Nc2ncc(C(F)(F)F)c(NCc3nccnc3N(C)S(C)(=O)=O)n2)cc1 [defactinib]
How it was run: as §1

[7] = compound: CNc1nc(-c2ccc3c(N)n[nH]c3c2)cc(N2C[C@@H](C(=O)NC3CCCCC3)CC[C@H]2C)n1
How it was run: as §1

encorafenib = compound: COC(=O)N[C@@H](C)CNc1nccc(-c2cn(C(C)C)nc2-c2cc(Cl)cc(NS(C)(=O)=O)c2F)n1 [encorafenib]
How it was run: as §1

[8] = compound: COC(=O)[C@H](CCSC)NC(=O)C1=C(C=C(C=C1)NC[C@H](CS)N)C2=CC=CC=C2
How it was run: as §1

alisertib = compound: COc1cc(Nc2ncc3c(n2)-c2ccc(Cl)cc2C(c2c(F)cccc2OC)=NC3)ccc1C(=O)O [alisertib]
How it was run: as §1

[9] = compound: COc1cc2nc(-c3cc(F)ccc3O)nc(N[C@@H]3CNC[C@H]3C(C)(C)O)c2cc1OC
How it was run: as §1

gefitinib = compound: COc1cc2ncnc(Nc3ccc(F)c(Cl)c3)c2cc1OCCCN1CCOCC1 [gefitinib]
How it was run: as §1

Row | Target | log2 fold change (vemurafenib) | log2 fold change [1] | log2 fold change (barasertib) | log2 fold change [2] | log2 fold change (volasertib) | log2 fold change [3] | log2 fold change [4] | log2 fold change [5] | log2 fold change (saracatinib) | log2 fold change (sotrastaurin) | log2 fold change (alvocidib) | log2 fold change (Tubastatin A) | log2 fold change [6] | log2 fold change (defactinib) | log2 fold change [7] | log2 fold change (encorafenib) | log2 fold change [8] | log2 fold change (alisertib) | log2 fold change [9] | log2 fold change (gefitinib)
1 | MAN2C1 isoform 4 (UniProt Q9NTJ4) | inactive: -0.005 | inactive: 0.051 | inactive: -0.024 | inactive: 0.027 | inactive: 0.004 | inactive: 0.007 | inactive: -0.017 | inactive: 0.054 | inactive: -0.029 | inactive: 0.03 | inactive: -0.003 | inactive: 0.017 | inactive: 0.026 | inactive: -0.046 | inactive: 0.161 | inactive: 0.075 | inactive: -0.03 | inactive: 0.076 | inactive: -0.006 | inactive: 0.051
2 | MAP7D1 (UniProt Q3KQU3) | inactive: 0.09 | inactive: 0.036 | inactive: 0.007 | inactive: 0.107 | inactive: -0.019 | inactive: -0.007 | inactive: 0.025 | inactive: -0.05 | inactive: 0.072 | inactive: 0.03 | inactive: -0.061 | inactive: -0.032 | inactive: 0.066 | inactive: 0.02 | inactive: 0.041 | inactive: 0.034 | inactive: -0.016 | inactive: -0.036 | inactive: 0.005 | inactive: -0.006
3 | MAST4 (UniProt O15021) | inactive: -0.085 | inactive: -0.049 | inactive: 0.051 | inactive: -0.126 | inactive: -0.017 | inactive: 0.121 | inactive: -0.204 | inactive: 0.059 | inactive: -0.001 | inactive: -0.015 | inactive: 0.042 | inactive: -0.11 | inactive: 0.394 | inactive: 0.282 | inactive: -0.173 | inactive: -0.036 | inactive: 0.006 | inactive: -0.043 | inactive: 0.032 | inactive: -0.066
4 | MAGEC1 (UniProt O60732) | inactive: 0.036 | inactive: 0.045 | inactive: 0.062 | inactive: 0 | inactive: -0.03 | inactive: -0.014 | inactive: -0.008 | inactive: -0.055 | inactive: 0.02 | inactive: -0.007 | inactive: -0.018 | inactive: -0.087 | inactive: 0.042 | inactive: 0.006 | inactive: -0.034 | inactive: 0.039 | inactive: 0.053 | inactive: -0.01 | inactive: -0.029 | inactive: 0.004
5 | MAPKAPK2 (UniProt P49137) | inactive: 0.011 | inactive: -0.043 | inactive: 0 | inactive: -0.015 | inactive: -0.032 | inactive: 0.009 | inactive: -0.032 | inactive: 0.002 | inactive: -0.037 | inactive: -0.015 | inactive: 0.069 | inactive: -0.078 | inactive: 0.077 | inactive: -0.059 | inactive: 0.025 | inactive: -0.026 | inactive: 0.046 | inactive: -0.023 | inactive: 0.114 | inactive: -0.013
6 | LYPLAL1 (UniProt Q5VWZ2) | inactive: -0.009 | inactive: 0.01 | inactive: 0.068 | inactive: 0.022 | inactive: 0.02 | inactive: -0.002 | inactive: -0.039 | inactive: 0.031 | inactive: -0.019 | inactive: -0.032 | inactive: 0.008 | inactive: 0.044 | inactive: -0.035 | inactive: -0.028 | inactive: 0.023 | inactive: -0.025 | inactive: -0.024 | inactive: -0.014 | inactive: 0.01 | inactive: -0.029
7 | LYZ (UniProt P61626) | inactive: 0.104 | inactive: 0.629 | inactive: 0.412 | inactive: 0 | inactive: -0.075 | inactive: -0.321 | inactive: 0.692 | inactive: -0.774 | inactive: -0.084 | inactive: -0.254 | inactive: -0.027 | inactive: 0.607 | inactive: 0.321 | inactive: 0.043 | inactive: -0.262 | inactive: -0.229 | inactive: 0.854 | inactive: 0.018 | inactive: 0.594 | inactive: -0.011
8 | MAP3K4 (UniProt Q9Y6R4) | inactive: 0.006 | inactive: 0.007 | inactive: 0.107 | inactive: 0.145 | inactive: 0.167 | inactive: 0.012 | inactive: 0.047 | inactive: 0.015 | inactive: 0.005 | inactive: -0.014 | inactive: -0.027 | inactive: -0.113 | active: 0.366 | inactive: 0.071 | inactive: -0.018 | inactive: -0.171 | inactive: 0.128 | inactive: -0.028 | inactive: -0.045 | inactive: 0.081
9 | MAPRE3 (UniProt Q9UPY8) | inactive: -0.059 | inactive: -0.023 | inactive: -0.004 | inactive: -0.005 | inactive: 0.001 | inactive: 0.059 | inactive: 0.186 | inactive: -0.139 | inactive: 0.057 | inactive: 0 | inactive: 0.049 | inactive: -0.028 | inactive: -0.007 | inactive: -0.01 | inactive: -0.018 | inactive: 0.01 | inactive: -0.032 | inactive: 0.017 | inactive: -0.016 | inactive: 0.049
10 | MAP11 (UniProt Q8WVR3) | inactive: -0.032 | inactive: 0.044 | inactive: 0.07 | inactive: 0.129 | inactive: -0.079 | inactive: 0.086 | inactive: 0.049 | inactive: 0.06 | inactive: 0.033 | inactive: -0.039 | inactive: -0.117 | inactive: -0.091 | inactive: 0.021 | inactive: 0.076 | inactive: 0.004 | inactive: -0.058 | inactive: -0.084 | inactive: -0.001 | inactive: -0.025 | inactive: -0.046
11 | MAP2K5 (UniProt Q13163) | inactive: 0.207 | inactive: 0.302 | inactive: 0.019 | inactive: -0.148 | inactive: -0.311 | inactive: -0.144 | inactive: 0.15 | inactive: -0.029 | inactive: -0.079 | inactive: 0.014 | inactive: 0.067 | inactive: -0.033 | inactive: 0.086 | inactive: -0.026 | inactive: 0.329 | inactive: 0.149 | inactive: -0.15 | inactive: -0.016 | inactive: 0.054 | inactive: 0.155
12 | MAGEB1 (UniProt P43366) | inactive: 0.022 | inactive: 0.024 | inactive: -0.01 | inactive: -0.08 | inactive: -0.038 | inactive: -0.015 | inactive: -0.014 | inactive: -0.018 | inactive: 0.029 | inactive: 0.041 | inactive: 0.021 | inactive: -0.12 | inactive: -0.011 | inactive: 0.004 | inactive: -0.027 | inactive: 0.037 | inactive: 0.085 | inactive: -0.003 | inactive: -0.024 | inactive: -0.011
13 | MACO1 (UniProt Q8N5G2) | inactive: -0.114 | inactive: -0.003 | inactive: -0.063 | active: 0.296 | inactive: -0.009 | inactive: 0.025 | inactive: 0.113 | inactive: -0.037 | inactive: 0.064 | inactive: -0.01 | inactive: -0.003 | inactive: -0.003 | inactive: -0.012 | inactive: 0.01 | inactive: 0.119 | inactive: -0.101 | inactive: -0.016 | inactive: -0.024 | inactive: -0.005 | inactive: 0.04
14 | MAGED2 (UniProt Q9UNF1) | inactive: 0.051 | inactive: 0.031 | inactive: 0.002 | inactive: -0.019 | inactive: 0 | inactive: -0.092 | inactive: 0.024 | inactive: -0.089 | inactive: 0.065 | inactive: 0.009 | inactive: 0.043 | inactive: 0.015 | inactive: 0.041 | inactive: -0.118 | inactive: -0.038 | inactive: 0.039 | inactive: 0.044 | inactive: 0.007 | inactive: 0.022 | inactive: 0.079
15 | MAP7D3 (UniProt Q8IWC1) | inactive: -0.153 | inactive: -0.039 | inactive: -0.031 | inactive: -0.056 | inactive: 0.018 | inactive: 0.029 | inactive: -0.053 | inactive: -0.006 | inactive: -0.019 | inactive: -0.024 | inactive: -0.063 | inactive: 0.015 | inactive: 0.037 | active: -0.379 | inactive: -0.011 | inactive: 0.223 | inactive: 0.013 | inactive: 0.01 | inactive: -0.02 | inactive: 0.017
16 | LZTS1 (UniProt Q9Y250) | inactive: -0.047 | inactive: -0.034 | inactive: 0.218 | inactive: 0.042 | inactive: 0.074 | inactive: -0.53 | inactive: 0.493 | inactive: -0.132 | inactive: 0 | inactive: -0.116 | inactive: 0.054 | inactive: 0.326 | inactive: -0.037 | inactive: -0.101 | inactive: 0.709 | inactive: -0.071 | inactive: 0.001 | inactive: -0.022 | inactive: 0.129 | inactive: -0.08

Single records, as listed above. Order of values: log2 fold change (vemurafenib)	log2 fold change [1]	log2 fold change (barasertib)	log2 fold change [2]	log2 fold change (volasertib)	log2 fold change [3]	log2 fold change [4]	log2 fold change [5]	log2 fold change (saracatinib)	log2 fold change (sotrastaurin)	log2 fold change (alvocidib)	log2 fold change (Tubastatin A)	log2 fold change [6]	log2 fold change (defactinib)	log2 fold change [7]	log2 fold change (encorafenib)	log2 fold change [8]	log2 fold change (alisertib)	log2 fold change [9]	log2 fold change (gefitinib)
MACO1 (UniProt Q8N5G2) in the list: inactive: -0.114	inactive: -0.003	inactive: -0.063	active: 0.296	inactive: -0.009	inactive: 0.025	inactive: 0.113	inactive: -0.037	inactive: 0.064	inactive: -0.01	inactive: -0.003	inactive: -0.003	inactive: -0.012	inactive: 0.01	inactive: 0.119	inactive: -0.101	inactive: -0.016	inactive: -0.024	inactive: -0.005	inactive: 0.04
MAGEC1 (UniProt O60732) in the list: inactive: 0.036	inactive: 0.045	inactive: 0.062	inactive: 0	inactive: -0.03	inactive: -0.014	inactive: -0.008	inactive: -0.055	inactive: 0.02	inactive: -0.007	inactive: -0.018	inactive: -0.087	inactive: 0.042	inactive: 0.006	inactive: -0.034	inactive: 0.039	inactive: 0.053	inactive: -0.01	inactive: -0.029	inactive: 0.004
